Source: patent US20220401564A1 (DANA-FARBER CANCER INSTITUTE, INC., priority 2019, published 2022)
For at least one compound, name, drawing or mass did not settle the structure.

Chains of the proteins cited; added tags and fusions are not shown. Lines headed by an entry give the natural chain unless they say otherwise; changes in a name come on top.
UniProt O15379: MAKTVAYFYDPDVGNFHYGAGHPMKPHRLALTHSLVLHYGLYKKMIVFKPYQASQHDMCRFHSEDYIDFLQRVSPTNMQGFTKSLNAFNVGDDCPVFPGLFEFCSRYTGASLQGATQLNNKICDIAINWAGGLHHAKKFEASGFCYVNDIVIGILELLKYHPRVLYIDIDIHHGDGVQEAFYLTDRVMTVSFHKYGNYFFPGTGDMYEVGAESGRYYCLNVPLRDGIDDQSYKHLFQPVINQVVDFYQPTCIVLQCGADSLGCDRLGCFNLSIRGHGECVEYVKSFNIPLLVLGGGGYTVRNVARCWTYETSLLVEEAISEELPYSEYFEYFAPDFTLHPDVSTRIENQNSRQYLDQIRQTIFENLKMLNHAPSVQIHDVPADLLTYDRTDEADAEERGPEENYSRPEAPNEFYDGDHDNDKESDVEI

Target: HDAC3 (Homo sapiens, UniProt O15379)
Assay: Change in cellular protein abundance (TMT proteomics) in Kelly cells
Assay type: cell-based
Set-up: relative change in relative protein abundance with treatment of Kelly cells; endogenous in cells; host or cells: Kelly cells
Conditions: scatter plots FIG. 1 and FIG. 3
Experimental: Lysis buffer (8 M Urea, 50 mM NaCl, 50 mM 4-(2hydroxyethyl)-1-piperazineethanesulfonic acid (EPPS) pH 8.5, protease and phosphatase inhibitors from Roche®) were added to the cell pellets and homogenized by 20 passes through a 21 gauge (1.25 in. long) needle to achieve a cell lysate with a protein concentration between 1-4 mg mL-1. A micro-BCA assay (Pierce™) was used to determine the final protein concentration in the cell lysate. 200 μg of protein for each sample were reduced and alkylated as described in Donovan et al., Elife 7:e38430 (2018).
Proteins were precipitated using methanol/chloroform. Four volumes of methanol were added to the cell lysate, followed by one volume of chloroform, and finally three volumes of water. The mixture was vortexed and centrifuged to separate the chloroform phase from the aqueous phase. […]
Anhydrous ACN was added to each peptide sample to a final concentration of 30% v/v, and labeling was induced with the addition of TMT reagent to each sample at a ratio of 1:4 peptide:TMT label. […] The sample channels were combined at a 1:1:1:1:1:1:1:1:1:1:1 ratio, desalted using Cis solid phase extraction cartridges (Waters®) and analyzed by LC-MS for channel ratio comparison. Samples were then combined using the adjusted volumes determined in the channel ratio analysis and dried down in a speed vacuum. […]

Cc1ncsc1-c1ccc(CNC(=O)[C@@H]2C[C@@H](O)CN2C(=O)[C@@H](NC(=O)C2(F)CC2)C(C)(C)C)c(OCCOCCOCCN(CCc2c[nH]c3ccccc23)Cc2ccc(/C=C/C(=O)NO)cc2)c1 [Compound 8, (2S,4R)—N-(2-(2-(2-(2-((2-(1H-indol-3-yl)ethyl)(4-((E)-3-(hydroxyamino)-3-oxoprop-1-en-1-yl)benzyl)amino)ethoxy)ethoxy)ethoxy)-4-(4-methylthiazol-5-yl)benzyl)-1-((S)-2-(1-fluorocyclopropane-1-carboxamido)-3,3-dimethylbutanoyl)-4-hydroxypyrrolidine-2-carboxamide] was tested, and the “HDAC3 protein levels, relative protein abundance compared to DMSO control” value was “significant and selective reduction”.
